Out of some 52,000 sequences screened, about 210 (0.4%) were called active.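 Rule for the calls: active = gene whose silencing raises cell survival under the drug, median off-target-corrected z-score across its silencing RNAs 2 or more; inactive = the rest.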 Some of the results follow.
Experiment: Resistance to Poly (ADP-Ribose) Polymerase inhibitor: Gene Identification via Genome-wide siRNA Screen
Conditions: mouse BRCA2 R2336H ES cells, olaparib, CellTiter-Glo viability; stronger effect = higher value
How it was run: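 Mouse BRCA2 R2336H ES cells were reverse-transfected with siRNA (20 nM final), treated at 48 h with 500 nM olaparib, and read by CellTiter-Glo after 72 h. Scores: MAD-based z per siRNA, median per gene, seed off-target correction.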

Sequence | z-score
GGACAGUGAUGAAGAUAUGTT against Nol1 | inactive: -0.528
GGAGGACAAUGGCUAAUAGTT against D930001I22Rik | inactive: -0.242
GGGAGACACUACACAAAAATT against Hsd3b5 | inactive: 0.0155
GGACAAGAAAACAGGUGUCTT against Tead3 | inactive: 0.967
GGACACAAGAAUGGGAGAATT against Asph | inactive: -0.683
GGCUAUGUGGGAGAGAAGATT against A530065I17Rik | inactive: 0.395
CGCUCAUAGAUGAUGCUCUTT against D19Wsu162e | inactive: 1.86
GCUGGAUGCCGUAUCUAAGTT against Gpiap1 | inactive: -1.05
GGGAACAAAGAAUUUUACATT against 4121402D02Rik | inactive: 0.774
GGUGUGUUCGAGUGUUUCUTT against Asb7 | inactive: 0.42
GGAAACUGAUCUUUUGAAGTT against Ptgdr | inactive: 0.0499
GCUGAAAAUACAAUCUCUGTT against Capn3 | inactive: 2.18
GGUAGAUCCUAUCCUGUCUTT against Mllt7 | inactive: -1.41
GGUUGGAGAAGUUGUUACUTT against Arl1 | inactive: -0.532
GCUGAGAACACAACAGCUUTT against 2310035K24Rik | inactive: 0.311
GGAACAGAGAGUAAAAUCUTT against ORF63 | inactive: -0.129
GGUGGAUAGUGACUUAUAUTT against Ifi47 | inactive: -0.999
CCUCUGUAGUCGCACCUAGTT against Agrp | inactive: -1.21
GCUGUUCCGAUUGGAAAUUTT against Pcmt1 | inactive: -0.629
GGCCAUAGUGAAGAAAGAATT against Hrasls3 | inactive: -1.16
GGAUGCAAGGGUUUUUUCCTT against Pparg | inactive: 1.3
GCCUCACUUGAUGAAAUGGTT against C330023F11Rik | inactive: -2.2
CGGGUUUGUAAUAUUGUAUTT against 2900024O10Rik | inactive: 0.511
GGGAAAACAGCAAAUAAUUTT against Efcbp1 | inactive: 1.12
GGGCUAGAAGAACAUGUAATT against Ear1 | inactive: 1.14
GGACAAGGCCUAUAGACCUTT against V1rl1 | inactive: 2.64

Sequence | z-score
CCGUCUUCGUUUGCCCUUGTT against Hod | inactive: -1.45
GCUACUCGUUGUGAGAACUTT against 0610011N22Rik | inactive: 0.45
GCACAGCUCUACAUAUUUCTT against Olfr313 | inactive: 0.637
GGAAAAAGAGCAAAAGUCGTT against Rnpc2 | inactive: -0.37
GCCUUAACAAUGUUAAUCATT against Igsf4d | inactive: 0.337
GCUCAGCCUGAGUAACGCATT against Nup62 | inactive: -1.84
GGCAUCAAGUUCUAUCUGUTT against Gabt4 | inactive: -0.952
CGGUCUACAAUAACAACAGTT against 1700009J07Rik | inactive: 0.786
GGCUCUACCUUAACCUAUATT against 1810020D17Rik | inactive: -1.01
CCCUAUAUGAAUAACUCAUTT against D930016N04Rik | inactive: 0.582
GCUCCACUCAAUUCAGUCCTT against Cd19 | inactive: -0.589
CGAGCUAACAGCAUUGCUGTT against Jub | inactive: 0.886
GGACUCUGCUAGGAAGACATT against B230374F23Rik | inactive: 0.642
CGUGGUUGUUACCUCCACATT against LOC268885 | inactive: 0.945
GACCACCAGAAAGUUUCACTT against Lfng | inactive: -0.0122
GGCAUUCUUAUAAAGAAACTT against Ube2q | inactive: 3.88
GGAGAUCAUCGACCCAGUGTT against Tuba4 | inactive: -0.678
GGAGUGUUUUGCAGUUUUATT against Tm7sf4 | inactive: -0.125
GGCCAAAUUCUUCAGCAGATT against Rpl27a | inactive: -2.82
GGAUGAAGAUGGUUCGUCGTT against Aof1 | inactive: 1.17
GCCAACCAGCAUUUUUGACTT against 2310010M24Rik | inactive: 0.994
CCAUUGUCAAGCCAGACUATT against Emilin1 | inactive: -0.373
GGAACAGUUUGCUUGGAGATT against Rps10 | inactive: -3.24
CCUAACAAAUGGUGGGAAATT against Nxph1 | inactive: -1.16
GGACUCCUCCCAAGACGAATT against Avil | inactive: -0.505
CGACUCAAUCAAUCUGAUUTT against Hook3 | inactive: 0.233

Sequence | z-score
GGAAGAAAGUCCUCUUUGCTT against Slc22a4 | inactive: -1.99
GGCCCAGAAGGUUAUCAUCTT against Ptf1a | inactive: 0.85
GGACUUCUCCAUCCUGACATT against Col5a1 | inactive: 1.61
CCAAGGAUUGUAAAGAAACTT against Hunk | inactive: -0.106
GGAACAAAAUACAUUCAAGTT against D430014M15 | inactive: 0.657
GGUACAGGCAAUUAAACUUTT against 9030416H16Rik | inactive: -1.84
GGGACAGAUUUUGAACUGATT against Cd2 | inactive: -1.5
GGGUCAGUCCUGGUUUUAUTT against BC003251 | inactive: 0.727
GGUCACUAAAUCCUGUACATT against V1rc2 | inactive: -0.838
GCUUAUCAGGAAAUACAGGTT against BC043098 | inactive: -0.61
CCUUUAAGUACACUUGUGUTT against Oas1c | inactive: -0.132
GGGACUGACGUAUAAAUACTT against Dnase2a | inactive: -0.685
GGGACACUACCCUGAUGAUTT against V1rh8 | inactive: 0.188
GGUAACCCACUUCCUUCCUTT against Fgf4 | inactive: -1.66
GGCAUUGUAUUUAACACACTT against Aass | inactive: -0.31
GGUUCAACGACCUUCGAUUTT against Runx3 | inactive: 1.44
GGCAAUGUACAGAUACUUGTT against A430089I19Rik | inactive: -1.57
CGUACCAGGAUUUUGAUAUTT against Adam17 | inactive: -0.0986
GCUCCAUCUACAAACAAUGTT against Gpr37l1 | inactive: -0.822
GGACCAUGAGUUACCGCAUTT against Plaur | inactive: 0.377
GCAACUCUAUCACUAAACUTT against Il2ra | inactive: -0.563
GCAAAGUCUAAGUUCUAUGTT against Osbpl5 | inactive: -0.788
GCAAGACUGAAAAUCCUGATT against MGC117751 | inactive: -0.12
GGCUCUGAUCUUGAACUAATT against 9030603L14Rik | inactive: -0.534
GGGAUCUACAUAUGAGGAATT against 1110007F12Rik | inactive: -1.09
CGAUGGAAAACCUCACAUCTT against Oaz2 | inactive: 0.914

As entered above:
z-score with GGUAACCCACUUCCUUCCUTT against Fgf4 reads inactive: -1.66
z-score with GGGACAGAUUUUGAACUGATT against Cd2 reads inactive: -1.5
z-score with GGCCCAGAAGGUUAUCAUCTT against Ptf1a reads inactive: 0.85
z-score with GGGAUCUACAUAUGAGGAATT against 1110007F12Rik reads inactive: -1.09

Next records

Sequence | z-score
GCAUGUUCUUUGUCACCUGTT against Htr6 | inactive: 0.89
GGAGAAGAAGAAAAAGUCATT against BC005537 | inactive: 0.252
GGCAGAAAAUUUUAACCAATT against Axot | inactive: -0.22
GGAGAUGCUAUAGAUGAAATT against Il20 | inactive: 0.442
GCUGUAUAACGAGAUUGAATT against 1700113I22Rik | inactive: -0.292
GGGACAAGUUGAAUAAAAUTT against 4930442L21Rik | inactive: 0.178
GGUUACCUAUUACAUCAUATT against Pcdhgb4 | inactive: 0.5
GCACUGGACAUUGUACACCTT against Caskin1 | inactive: 1.7
GGACAAGUUCAUAAAGAGATT against Cyp2r1 | inactive: -0.549
UUUGCAUGUACAGAAUGCUTT against Olfr312 | inactive: 1.36
GGAAGUACAAUGCAGAUUGTT against V2R2 | inactive: -0.93
CCUGAUCUUCUGUGAUAGCTT against Olfr881 | inactive: 1.03
GGUGUCAGAAGCAGUGUAUTT against Treml1 | inactive: -0.988
GGCUGACCUUCUGUGCUGATT against Olfr876 | inactive: -0.147
GCUGGUCAAGGGUCUAGAGTT against Saa3 | inactive: -1.96
GGAGACAGCACAAGUCCUGTT against H2-M10.2 | inactive: 0.292
CAUAGAGUGCCUGAUUUUATT against Olfr438 | inactive: -0.238
CCCUGUGGGCCUUUAGUAUTT against 2900036K24Rik | inactive: 0.05
CCCAACAACCAACUAUUUUTT against Kcna1 | inactive: -1
GCGUGAUAGAGCUUUAUCUTT against Slc16a7 | inactive: 1.61
GGCUGGCAUCACCAUCAAATT against Kit | inactive: 1.85
CGUGGAUAAAGAUAACCCGTT against Sssca1 | inactive: 0.12
GGAGAUCUUCAAUAUGUUATT against Supt6h | inactive: -0.396
GGAGCACAGGAAAAUAUAUTT against Mdm2 | inactive: -1.97
GGAGGCUCUCACCGUAAACTT against Ttc7 | inactive: 0.475
GGAGCGUAGCAUUUGCAUATT against Gcnt2 | inactive: -0.051

Source: PubChem BioAssay AID1347423 (Functional Genomics Laboratory (NCATS/FGL), 2020)
